Data: publication PMC10661027, “Tuning Plant Promoters Using a Simple Split Luciferase Method to Assess Transcription Factor-DNA Interactions”
Construct, isoform or probe ends are uncertain for at least one entry. For some of these results: A weaker result is weaker than the reference pair of the same experiment. For some of these results: At least one verdict was read from the data and is not stated in words by the source. For some of these results: Tags and fusion partners may be left off the protein sequences shown.

Protein sequences, listed by entry. Tags and fused reporters are not part of them. Lines headed by an entry give the natural chain unless they say otherwise; changes in a name come on top.
UniProt Q9C5W9: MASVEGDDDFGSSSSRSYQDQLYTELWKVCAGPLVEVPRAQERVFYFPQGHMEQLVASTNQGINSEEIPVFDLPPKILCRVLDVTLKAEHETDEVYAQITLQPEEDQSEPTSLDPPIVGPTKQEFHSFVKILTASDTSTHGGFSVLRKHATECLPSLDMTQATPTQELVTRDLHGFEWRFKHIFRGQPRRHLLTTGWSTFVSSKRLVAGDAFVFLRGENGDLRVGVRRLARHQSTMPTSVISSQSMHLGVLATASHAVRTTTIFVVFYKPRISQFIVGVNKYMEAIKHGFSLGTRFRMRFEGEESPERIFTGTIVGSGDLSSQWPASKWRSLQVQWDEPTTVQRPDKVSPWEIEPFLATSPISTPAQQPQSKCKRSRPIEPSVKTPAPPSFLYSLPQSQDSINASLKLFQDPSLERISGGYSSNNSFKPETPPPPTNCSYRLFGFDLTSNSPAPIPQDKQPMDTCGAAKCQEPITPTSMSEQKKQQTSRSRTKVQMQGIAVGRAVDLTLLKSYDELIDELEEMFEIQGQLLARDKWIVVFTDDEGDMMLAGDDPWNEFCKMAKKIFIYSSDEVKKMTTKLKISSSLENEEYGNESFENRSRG

Key:
[1] = target: T1, AtTGA1:HiBiT (Arabidopsis thaliana) (UniProt Q39237); experiment: qTFD (HiBiT luminescence microplate, relative to rnd); conditions: weak rQ; qTFD: 25 mM Tris-HCl pH 8.0, 100 mM KCl, 2 mM DTT, 1 mM EDTA, 0.1% BSA, 500 ng poly(dI-dC), 5% glycerol, 0.05% IGEPAL CA630, 1.5-50 nM protein, 1-3 h, room temperature; recombinant protein
T1 sequence (looked up, limits assumed): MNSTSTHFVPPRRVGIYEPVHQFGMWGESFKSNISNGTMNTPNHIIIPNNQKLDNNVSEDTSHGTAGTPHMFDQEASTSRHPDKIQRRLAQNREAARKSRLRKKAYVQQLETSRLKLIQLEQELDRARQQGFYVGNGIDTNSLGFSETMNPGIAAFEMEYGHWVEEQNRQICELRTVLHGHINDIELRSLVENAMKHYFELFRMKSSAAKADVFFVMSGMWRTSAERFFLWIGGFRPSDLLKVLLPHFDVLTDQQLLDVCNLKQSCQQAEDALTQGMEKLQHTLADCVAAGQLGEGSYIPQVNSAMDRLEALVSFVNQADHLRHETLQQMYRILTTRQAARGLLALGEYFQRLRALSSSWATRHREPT

[2] = target: ARF18:HiBiT (UniProt Q9C5W9); experiment: qTFD (HiBiT luminescence microplate); conditions: qTFD: 25 mM Tris-HCl pH 8.0, 100 mM KCl, 2 mM DTT, 1 mM EDTA, 0.1% BSA, 500 ng poly(dI-dC), 5% glycerol, 0.05% IGEPAL CA630, 1.5-50 nM protein, 1-3 h, room temperature; recombinant protein
[3] = target: T2, NLP6:HiBiT (UniProt Q8RWY4); experiment: qTFD (HiBiT luminescence microplate); conditions: qTFD: 25 mM Tris-HCl pH 8.0, 100 mM KCl, 2 mM DTT, 1 mM EDTA, 0.1% BSA, 500 ng poly(dI-dC), 5% glycerol, 0.05% IGEPAL CA630, 1.5-50 nM protein, 1-3 h, room temperature; recombinant protein
T2 sequence (looked up, limits assumed): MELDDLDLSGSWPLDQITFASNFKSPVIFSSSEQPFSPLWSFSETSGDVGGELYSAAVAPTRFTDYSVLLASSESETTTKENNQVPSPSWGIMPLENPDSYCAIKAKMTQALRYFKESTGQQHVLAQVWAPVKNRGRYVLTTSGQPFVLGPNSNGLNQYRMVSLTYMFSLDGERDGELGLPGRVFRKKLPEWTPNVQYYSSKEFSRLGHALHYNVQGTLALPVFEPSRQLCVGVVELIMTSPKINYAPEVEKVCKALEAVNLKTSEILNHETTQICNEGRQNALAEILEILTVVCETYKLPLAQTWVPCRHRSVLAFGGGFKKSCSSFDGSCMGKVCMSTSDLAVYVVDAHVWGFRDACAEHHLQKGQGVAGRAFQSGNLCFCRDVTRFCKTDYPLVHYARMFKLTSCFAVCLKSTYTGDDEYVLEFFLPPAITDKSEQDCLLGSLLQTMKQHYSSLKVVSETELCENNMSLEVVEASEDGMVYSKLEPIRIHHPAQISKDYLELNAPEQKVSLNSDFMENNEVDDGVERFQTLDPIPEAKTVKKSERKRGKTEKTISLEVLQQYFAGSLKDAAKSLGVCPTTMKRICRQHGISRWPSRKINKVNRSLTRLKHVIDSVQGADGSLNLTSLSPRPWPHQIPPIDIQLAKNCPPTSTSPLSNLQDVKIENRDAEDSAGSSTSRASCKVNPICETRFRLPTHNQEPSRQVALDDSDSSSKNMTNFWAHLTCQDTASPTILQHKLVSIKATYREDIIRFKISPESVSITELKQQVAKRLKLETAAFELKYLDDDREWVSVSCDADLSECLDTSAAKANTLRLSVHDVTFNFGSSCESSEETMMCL

[4] = target: T3, ANAC032:HiBiT (UniProt Q9CAR0); experiment: qTFD (HiBiT luminescence microplate); conditions: qTFD: 25 mM Tris-HCl pH 8.0, 100 mM KCl, 2 mM DTT, 1 mM EDTA, 0.1% BSA, 500 ng poly(dI-dC), 5% glycerol, 0.05% IGEPAL CA630, 1.5-50 nM protein, 1-3 h, room temperature; recombinant protein
T3 sequence (looked up, limits assumed): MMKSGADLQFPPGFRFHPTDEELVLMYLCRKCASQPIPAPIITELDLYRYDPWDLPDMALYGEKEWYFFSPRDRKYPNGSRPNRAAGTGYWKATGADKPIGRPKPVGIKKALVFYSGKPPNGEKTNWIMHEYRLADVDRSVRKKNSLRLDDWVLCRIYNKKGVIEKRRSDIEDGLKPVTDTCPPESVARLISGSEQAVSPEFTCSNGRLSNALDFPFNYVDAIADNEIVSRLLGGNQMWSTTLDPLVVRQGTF

[5] = target: T1, AtTGA1:HiBiT (Arabidopsis thaliana); experiment: qTFD (HiBiT luminescence microplate); conditions: reference for rQ normalisation; qTFD: 25 mM Tris-HCl pH 8.0, 100 mM KCl, 2 mM DTT, 1 mM EDTA, 0.1% BSA, 500 ng poly(dI-dC), 5% glycerol, 0.05% IGEPAL CA630, 1.5-50 nM protein, 1-3 h, room temperature; recombinant protein
[6] = target: T4, NLP7:HiBiT (UniProt Q84TH9); experiment: qTFD (HiBiT luminescence microplate); conditions: qTFD: 25 mM Tris-HCl pH 8.0, 100 mM KCl, 2 mM DTT, 1 mM EDTA, 0.1% BSA, 500 ng poly(dI-dC), 5% glycerol, 0.05% IGEPAL CA630, 1.5-50 nM protein, 1-3 h, room temperature; recombinant protein
T4 sequence (looked up, limits assumed): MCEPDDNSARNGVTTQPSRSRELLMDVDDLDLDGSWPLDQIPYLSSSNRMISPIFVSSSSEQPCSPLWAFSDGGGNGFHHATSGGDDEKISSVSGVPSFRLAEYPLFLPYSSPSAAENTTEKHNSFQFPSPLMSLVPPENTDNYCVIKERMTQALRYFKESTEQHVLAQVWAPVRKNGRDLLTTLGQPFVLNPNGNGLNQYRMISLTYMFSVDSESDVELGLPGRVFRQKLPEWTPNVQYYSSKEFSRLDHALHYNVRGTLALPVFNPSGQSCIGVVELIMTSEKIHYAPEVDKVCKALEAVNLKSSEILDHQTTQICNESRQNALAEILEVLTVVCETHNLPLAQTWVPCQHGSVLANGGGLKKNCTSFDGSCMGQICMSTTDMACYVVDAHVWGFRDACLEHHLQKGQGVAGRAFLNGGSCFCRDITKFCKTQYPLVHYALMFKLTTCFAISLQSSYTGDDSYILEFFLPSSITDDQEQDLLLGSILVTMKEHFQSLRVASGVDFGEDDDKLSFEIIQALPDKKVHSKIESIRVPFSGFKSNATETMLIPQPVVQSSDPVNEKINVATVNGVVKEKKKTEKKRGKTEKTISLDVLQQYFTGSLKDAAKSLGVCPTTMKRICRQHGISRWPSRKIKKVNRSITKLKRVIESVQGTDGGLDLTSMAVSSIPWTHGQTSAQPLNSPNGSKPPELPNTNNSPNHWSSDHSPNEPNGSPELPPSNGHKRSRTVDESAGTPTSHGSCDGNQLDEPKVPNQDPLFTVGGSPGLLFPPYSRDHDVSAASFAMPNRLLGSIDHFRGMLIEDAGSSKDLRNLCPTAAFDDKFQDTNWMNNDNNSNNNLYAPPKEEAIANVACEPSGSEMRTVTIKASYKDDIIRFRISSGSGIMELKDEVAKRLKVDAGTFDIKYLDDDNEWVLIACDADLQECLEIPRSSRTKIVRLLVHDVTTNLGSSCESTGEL

[7] = target: T3, ANAC032:HiBiT; experiment: qTFD (HiBiT luminescence microplate, relative to rnd); conditions: qTFD: 25 mM Tris-HCl pH 8.0, 100 mM KCl, 2 mM DTT, 1 mM EDTA, 0.1% BSA, 500 ng poly(dI-dC), 5% glycerol, 0.05% IGEPAL CA630, 1.5-50 nM protein, 1-3 h, room temperature; recombinant protein
[8] = target: T2, NLP6:HiBiT; experiment: as above; conditions: qTFD: 25 mM Tris-HCl pH 8.0, 100 mM KCl, 2 mM DTT, 1 mM EDTA, 0.1% BSA, 500 ng poly(dI-dC), 5% glycerol, 0.05% IGEPAL CA630, 1.5-50 nM protein, 1-3 h, room temperature; recombinant protein
[9] = target: T4, NLP7:HiBiT; experiment: as above; conditions: qTFD: 25 mM Tris-HCl pH 8.0, 100 mM KCl, 2 mM DTT, 1 mM EDTA, 0.1% BSA, 500 ng poly(dI-dC), 5% glycerol, 0.05% IGEPAL CA630, 1.5-50 nM protein, 1-3 h, room temperature; recombinant protein
[10] = target: ARF18:HiBiT (UniProt Q9C5W9); experiment: as above; conditions: qTFD: 25 mM Tris-HCl pH 8.0, 100 mM KCl, 2 mM DTT, 1 mM EDTA, 0.1% BSA, 500 ng poly(dI-dC), 5% glycerol, 0.05% IGEPAL CA630, 1.5-50 nM protein, 1-3 h, room temperature; recombinant protein

Sequence: TAGCGAAGTACGATCCCAACACGCACTTAGTGCCTAATTACGTCTTAATTTAATATTTTTTAAAGCGGCCATCACGCAGTA (double strand) [TFBS_12]
- binding result [1]: binds more weakly

Sequence: TAGCGAAGTACGATCCCATGAAGACGCTGGGTTTACATGGGAATGGTGCTTCTGTTCTAACAGGCTAGGATATAAGGCCATCACGCAGTA (double strand) [Random (rnd)]
- binding result [2]: binds more weakly
- binding result [3]: binds more weakly
- binding result [4]: binds more weakly
- binding result [5]: binds more weakly
- binding result [6]: binds more weakly

Sequence: TAGCGAAGTACGATCCCATGAAGACGGAGGTAAGCAAATTGATCACGCAACTGGTGGATATAAGGCCATCACGCAGTA (double strand) [ANAC032SO1]
- binding result [7]: binds

Sequence: TAGCGAAGTACGATCCCATCAAAGAGAAACAACTTGACCCTTTACATTGCTCAAGAGCTCATCTCTTCCCTCTACGGCCATCACGCAGTA (double strand) [NIR1]
- binding result [8]: binds
- binding result [9]: binds

Sequence: CCTTTTGTCTCCCTTTTGTCTCCCTTTTGTCTCCCTTTTGTCTCCCTTTTGTCTCCCTTTTGTCTCCCTTTTGTCTC (double strand) [DR5(7X)]
- binding result [10]: binds
